Assay results

From PubChem BioAssay record AID504749 (NCATS, 2011).

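A panel of P. falciparum strains inside erythrocytes is exposed to compounds for three days, then a DNA-binding dye reports the amount of parasite DNA.
Each compound was titrated across a series from about 0.000037 to 29 µM.
The number is the fitted AC50, the concentration giving a half-maximal change in signal; a lower value means higher potency, whether the curve shows a decrease or an increase.
Calls follow the curve class and fit quality: every row here is inconclusive, covering signal-raising curves and weak, poorly fitted, partial or highest-dose-only inhibition curves.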

Values are in µM.
All entries here are filed as inconclusive.
Only part of the assay is shown, chiefly results filed as inconclusive.
A potency from a partial, single-point or poor curve is only a rough figure.

{"compound": "NC(CCC(=O)N[C@@H](CS)C(=O)NCC(=O)O)C(=O)O", "stereo": "stereo partly specified", "setting": "CP325", "potency (µM)": "16.94", "remark": "inhibitor, single point"}
{"compound": "NC(CCC(=O)N[C@@H](CS)C(=O)NCC(=O)O)C(=O)O", "stereo": "stereo partly specified", "setting": "CP247", "potency (µM)": "17.78", "remark": "inhibitor, single point"}
{"compound": "NC(CCC(=O)N[C@@H](CS)C(=O)NCC(=O)O)C(=O)O", "stereo": "stereo partly specified", "setting": "SC27B", "potency (µM)": "10", "remark": "inhibitor, single point"}
{"compound": "NC(CCC(=O)N[C@@H](CS)C(=O)NCC(=O)O)C(=O)O", "stereo": "stereo partly specified", "setting": "CP217", "potency (µM)": "17.78", "remark": "inhibitor, single point"}
{"compound": "NC(CCC(=O)N[C@@H](CS)C(=O)NCC(=O)O)C(=O)O", "stereo": "stereo partly specified", "setting": "CP238", "potency (µM)": "17.78", "remark": "inhibitor, single point"}
{"compound": "NC(CCC(=O)N[C@@H](CS)C(=O)NCC(=O)O)C(=O)O", "stereo": "stereo partly specified", "setting": "CP286", "potency (µM)": "11.22", "remark": "inhibitor, single point"}
{"compound": "NC(CCC(=O)N[C@@H](CS)C(=O)NCC(=O)O)C(=O)O", "stereo": "stereo partly specified", "setting": "CP250", "potency (µM)": "15.85", "remark": "inhibitor, single point"}
{"compound": "NC(CCC(=O)N[C@@H](CS)C(=O)NCC(=O)O)C(=O)O", "stereo": "stereo partly specified", "setting": "CP211", "potency (µM)": "15.1", "remark": "inhibitor, single point"}
{"compound": "NC(CCC(=O)N[C@@H](CS)C(=O)NCC(=O)O)C(=O)O", "stereo": "stereo partly specified", "setting": "CP268", "potency (µM)": "13.46", "remark": "inhibitor, single point"}
{"compound": "Cc1cc(=O)oc2cc(O)ccc12", "setting": "CP247", "potency (µM)": "1.585", "remark": "inhibitor, single point"}
{"compound": "Cc1cc(=O)oc2cc(O)ccc12", "setting": "CP250", "potency (µM)": "1.585", "remark": "inhibitor, single point"}
{"compound": "Cc1cc(=O)oc2cc(O)ccc12", "setting": "CP185", "potency (µM)": "1.585", "remark": "inhibitor, single point"}
{"compound": "Cc1cc(=O)oc2cc(O)ccc12", "setting": "CP256", "potency (µM)": "1.585", "remark": "inhibitor, single point"}
{"compound": "Cc1cc(=O)oc2cc(O)ccc12", "setting": "CP217", "potency (µM)": "1.585", "remark": "inhibitor, single point"}
{"compound": "Cc1cc(=O)oc2cc(O)ccc12", "setting": "DFO2036", "potency (µM)": "1.585", "remark": "inhibitor, single point"}
{"compound": "Cc1cc(=O)oc2cc(O)ccc12", "setting": "CP286", "potency (µM)": "10", "remark": "inhibitor, single point"}
{"compound": "Cc1cc(=O)oc2cc(O)ccc12", "setting": "TAB165", "potency (µM)": "1.585", "remark": "inhibitor, single point"}
{"compound": "Cc1cc(=O)oc2cc(O)ccc12", "setting": "ATS189", "potency (µM)": "1.585", "remark": "inhibitor, single point"}